Measured values published in patent US5137805.
For some assays here: Where cells or extracts were used, other partners may take part. For some assays here: Negatives hold for the conditions tested. Where a protein sequence is shown, tags need not be part of it.

What was measured:
[1] = molecular target: T1, heat shock factor (HSF), in vitro heat-activated HeLa cytoplasmic S100 extract (Homo sapiens) (UniProt Q00613); test: competition with a labelled probe; details: no competition for HSE probe; protein in an extract
T1 sequence (looked up, limits assumed): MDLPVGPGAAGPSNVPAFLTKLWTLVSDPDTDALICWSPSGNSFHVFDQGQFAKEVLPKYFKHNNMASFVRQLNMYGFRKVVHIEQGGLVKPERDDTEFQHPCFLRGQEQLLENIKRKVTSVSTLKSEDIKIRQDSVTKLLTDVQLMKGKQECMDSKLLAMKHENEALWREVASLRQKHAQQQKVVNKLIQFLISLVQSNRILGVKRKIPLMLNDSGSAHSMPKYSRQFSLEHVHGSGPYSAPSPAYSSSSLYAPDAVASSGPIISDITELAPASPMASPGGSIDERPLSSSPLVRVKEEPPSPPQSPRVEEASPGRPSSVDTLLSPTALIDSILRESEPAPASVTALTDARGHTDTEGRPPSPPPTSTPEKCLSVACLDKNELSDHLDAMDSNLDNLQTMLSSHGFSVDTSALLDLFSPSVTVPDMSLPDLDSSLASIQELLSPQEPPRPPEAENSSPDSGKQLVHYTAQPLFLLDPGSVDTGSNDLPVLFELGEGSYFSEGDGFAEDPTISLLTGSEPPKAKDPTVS

[2] = molecular target: T2, heat shock factor (HSF), from HeLa nuclear extract, fractionated on DNA-cellulose (Homo sapiens) (UniProt Q00613); test: binding assay; details: affinity chromatography on oligo-Sepharose; loaded in 0.3 M KCl, eluted with 0.8 M KCl; purified native protein
T2 sequence (looked up, limits assumed): T1 sequence (looked up, limits assumed)

Sequence	binding result [1]	binding result [2]
CACCGTCGATTTCCCTTCTGAGCCAATCACCGAGCTCGA (double strand) [39-bp CCAAT oligonucleotide]	no binding	–
GATCCTAGAAGCTTCTAGAAGCTTCTAG (double strand) [self-complementary 28-mer HSE affinity oligonucleotide]	–	binds
